Data: PubChem BioAssay AID2685 (National Center for Advancing Translational Sciences (NCATS), 2010)
Screen size: about 320,000 compounds; about 2,100 (0.66%) were called active. The shares of active, inactive and inconclusive entries below differ from those in the screen. Calls come from the whole dose curve; as a rule, active = well fitted inhibition curve with a large enough effect in the signal ratio, with a control signal flat (not every such curve was filed as active); inconclusive = small, poorly fitted or top-dose-only effect, or effect the other way, or a change in a side signal; inactive = flat fitted curve, though single readings scatter; the % refers to the signal ratio. A potency beside an inconclusive call is a rough fit, not a confirmed value.

Experiment: qHTS Assay for Lipid Storage Modulators in Drosophila S3 Cells
Settings: BODIPY lipid droplet fluorescence, 18-24 h, cells fed with added oleic acid; lipid storage change, negative = inhibition: at 46.1 µM (top of the series) unless noted
Procedure, shortened: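 Drosophila S3 cells got compounds at several concentrations plus oleic acid (400 uM solution). Laser-scanning cytometry with 488 nm excitation read lipid droplets at 500-530 nm and cells at 575-640 nm. Percent activity was relative to 20 uM Triacsin C.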
% is set by controls: 0 for no effect and ±100 for the full control effect; potency is the fitted concentration of half-maximal effect.

SMILES | lipid storage change, negative = inhibition | Potency
O=C(CN1CCc2ccccc2C1)N1CCN(S(=O)(=O)c2ccccc2)CC1 | inconclusive: -24.5% | –
COc1ccc(-c2noc(C3CCCN(S(=O)(=O)c4cccc(Cl)c4C)C3)n2)cc1OC (centres undefined) | inconclusive: -21.4% | –
Cc1ccc2nc3sc(C(=O)N4CCOCC4)c(N)c3cc2c1 | inconclusive: 15.4% | –
COc1ccc(Sc2ccc(/C=C3\C(=O)NN(c4ccccc4)C3=O)o2)cc1 | inconclusive: -28.9% | –
CCCCN(C)C(=O)Cn1c(=O)oc2cc(S(=O)(=O)N3CC(C)CC(C)C3)ccc21 (centres undefined) | inconclusive: 13.7% | –
CC(C)CN(C(=O)CC1OC(=O)c2ccccc21)c1c(N)n(Cc2ccccc2)c(=O)[nH]c1=O (centres undefined) | inconclusive | –
COC(=O)c1c(C)[nH]c(C(=O)NCCc2ccc(S(N)(=O)=O)cc2)c1C | – | inconclusive: 6.51 µM [activator, single point]
O=C(NCCN1CCOCC1)C(=O)NCC1OCCN1S(=O)(=O)c1cc(F)ccc1F (centres undefined) | inconclusive: 20.3% | –
O=C(Cn1c(=O)oc2cc(S(=O)(=O)N3CCCCCC3)ccc21)NC1CCCCC1 | inconclusive: -6.31% | –
Cc1ccc(NC(=O)c2cc3ccccc3o2)cc1 | – | inconclusive: 4.11 µM [falling, single point]
Cc1[nH]c(C)c(S(=O)(=O)Nc2ccc(OC(F)(F)F)cc2)c1C(=O)N1CCCCC1 | – | active: 4.11 µM
Cc1ccc(Nc2nc(NCC3CCCO3)nc(N)c2[N+](=O)[O-])cc1 (centres undefined) | inconclusive: 22.5% | –
CCC1=NN2C(=N)/C(=C\c3ccc(OCCOc4ccc(NC(C)=O)cc4)cc3)C(=O)N=C2S1 | inconclusive: -35.2% | –
COc1ccccc1NC(=O)Nc1ccc2c(c1)CCC2 | – | inconclusive: 20.6 µM [falling, single point]
CCc1cc2c(=O)[nH]c(N3CCCC3)nc2s1 | inconclusive: 2.59% | –
N=C(N)c1ccc(O)cc1 | inconclusive: 9.22% | –
COc1ccc(C(CNC(=O)c2ccc(NS(=O)(=O)c3ccc(F)cc3)cc2)N2CCOCC2)cc1 (centres undefined) | inconclusive: -24.8% | –
N=c1n(CCN2CCCC2)c2ccccc2n1CC(O)c1ccco1 (centres undefined) | – | active: 23.1 µM
O=C(COC(=O)CCCc1nc2ccccc2s1)NC(=O)NCc1ccco1 | – | inconclusive: 2.06 µM [falling, partial curve, poor fit]
CCOC(=O)c1c(C)n(C)c2ccc(OCC(N)=O)cc12 | – | inconclusive: 0.92 µM [activator, partial curve]
CS(=O)(=O)N(CC(=O)Nc1c(F)cccc1F)c1ccc(C23CC4CC(CC(C4)C2)C3)cc1 | – | inconclusive: 14.6 µM [cytotoxic, partial curve, poor fit]
CCOC(=O)c1nc(Nc2cc(C)cc(C)c2)c2ccccc2n1 | inconclusive: 14.7% [at 9.22 µM] | –
CC(=O)c1ccc(NC(=O)C2(S(=O)(=O)c3ccccc3)CC2)cc1 | inconclusive: 5.14% | –
Cc1ccc(NC(=O)COC(=O)CCCC2=NS(=O)(=O)c3ccccc3N2)cc1C | inconclusive: -11.2% | –
Cc1cc(C)n(S(=O)(=O)c2ccc3oc(=O)ccc3c2)n1 | inconclusive: 30.5% | –

SMILES | lipid storage change, negative = inhibition | Potency
COc1ccc(OC)c(C2=NOC(C(=O)NCc3cccs3)C2)c1 (centres undefined) | inactive | –
CCCC(=O)Nc1ccc(S(=O)(=O)Nc2cc(C)nc(C)n2)cc1 | inconclusive: -38.1% | –
Cc1cc2nccc(-c3ccncc3)n2n1 | inconclusive: 21.5% | –
N=c1n(CC(=O)O)c2ccccc2n1Cc1ccccc1Cl | – | inconclusive: 0.411 µM [falling, full curve]
O=[N+]([O-])c1ccc(CSc2ccc(-c3ccccn3)nn2)cc1 | inconclusive: 28.1% [at 9.22 µM] | –
COc1ccccc1CC(=O)N1CCN(S(=O)(=O)c2ccccc2)CC1 | inconclusive: 31.7% | –
Cc1ccc(-n2c(-c3ccncc3)nnc2-c2ccco2)cc1 | inconclusive: 29.3% | –
Cc1cc(C)c(S(=O)(=O)n2ccc(-c3ccc(OCCN(C)c4ccccn4)cc3)n2)c(C)c1 | – | inconclusive: 29.1 µM [activator, single point]
CCC(C(=O)Nc1ccc(S(=O)(=O)Nc2ncccn2)cc1)c1ccccc1 (centres undefined) | inconclusive: -4.66% | –
COc1ccc(Cn2nnnc2C(c2cccs2)N2CCOCC2)cc1 (centres undefined) | inconclusive: 13.9% | –
Cn1cc(/C=N/NC(=O)COc2ccccc2[N+](=O)[O-])c2ccccc21 | inconclusive: 16% | –
Cc1ccc(OCC(=O)NNC(=O)Cn2nnc(-c3ccccc3)n2)cc1 | inconclusive: -22% | –
CSCCC(C(=O)NC1=NCCS1)N1C(=O)c2ccccc2C1=O (centres undefined) | inconclusive: -41.4% | –
CC(C)C(=O)NC(=S)/C=C1/N(C)c2ccccc2C1(C)C | inconclusive: -83.7% | –
COc1ccc(CCC(=O)N2CCCC(Nc3ccc(OC)cc3)C2)cc1 (centres undefined) | inconclusive: -6.19% | –
Cc1cccn2c(=O)c3cc(C(=O)N4CC(C)CC(C)C4)sc3nc12 (centres undefined) | – | inconclusive: 23.1 µM [activator, single point]
COc1ccc2c(c1)-c1c(sn(-c3ccc(OC)c(OC)c3)c1=S)C(C)(C)N2 | – | inconclusive: 32.6 µM [falling, partial curve, poor fit]
CC(=O)c1cc(-c2ccccc2)n(CC(=O)NC2CCCC2)c1C | inactive | –
O=C(Cn1c(=O)cnc2ccccc21)NCC(=O)Nc1ccc(F)c(F)c1 | inconclusive: -6.95% | –
COc1ccc(C(=O)NCc2nnc(SCC(=O)c3ccccc3)n2C)cc1 | – | inconclusive: 25.9 µM [rising, single point]
CC(C)(C)NC(=O)c1oc2ccccc2c1COc1ccccc1 | – | inconclusive: 29.1 µM [falling, single point]
CC(C)CC(=O)Nc1nnc(CCc2ccccc2)s1 | inconclusive: -53.9% | –
CC(C)CNC(=O)c1ccc(Cl)c(NC(=O)COc2ccccc2)c1 | inconclusive: 32% | –
COC(=O)C1C(=O)C2=C(CC1C)NC(C)=C(C(=O)OC(C)C)C2c1ccc(C)o1 (centres undefined) | – | inconclusive: 3.66 µM [activator, single point]

Ordered by number of heavy atoms (ascending): some entries from above.
SMILES | lipid storage change, negative = inhibition | Potency
CC(C)C(=O)NC(=S)/C=C1/N(C)c2ccccc2C1(C)C | inconclusive: -83.7% | –
O=[N+]([O-])c1ccc(CSc2ccc(-c3ccccn3)nn2)cc1 | inconclusive: 28.1% [at 9.22 µM] | –
COc1ccc(OC)c(C2=NOC(C(=O)NCc3cccs3)C2)c1 (centres undefined) | inactive | –
COC(=O)C1C(=O)C2=C(CC1C)NC(C)=C(C(=O)OC(C)C)C2c1ccc(C)o1 (centres undefined) | – | inconclusive: 3.66 µM [activator, single point]
